# Test results taken from the supplement of paper PMC12067093, “Discovery and optimisation of a covalent ligand for TRIM25 and its application to targeted protein ubiquitination” (Chemical Science, 2025).
# The chains behind the UniProt entries cited, without tags or fusion partners. Where a name states a change or a piece, a line headed by the entry shows the natural chain unless it says otherwise.
# UniProt O96028: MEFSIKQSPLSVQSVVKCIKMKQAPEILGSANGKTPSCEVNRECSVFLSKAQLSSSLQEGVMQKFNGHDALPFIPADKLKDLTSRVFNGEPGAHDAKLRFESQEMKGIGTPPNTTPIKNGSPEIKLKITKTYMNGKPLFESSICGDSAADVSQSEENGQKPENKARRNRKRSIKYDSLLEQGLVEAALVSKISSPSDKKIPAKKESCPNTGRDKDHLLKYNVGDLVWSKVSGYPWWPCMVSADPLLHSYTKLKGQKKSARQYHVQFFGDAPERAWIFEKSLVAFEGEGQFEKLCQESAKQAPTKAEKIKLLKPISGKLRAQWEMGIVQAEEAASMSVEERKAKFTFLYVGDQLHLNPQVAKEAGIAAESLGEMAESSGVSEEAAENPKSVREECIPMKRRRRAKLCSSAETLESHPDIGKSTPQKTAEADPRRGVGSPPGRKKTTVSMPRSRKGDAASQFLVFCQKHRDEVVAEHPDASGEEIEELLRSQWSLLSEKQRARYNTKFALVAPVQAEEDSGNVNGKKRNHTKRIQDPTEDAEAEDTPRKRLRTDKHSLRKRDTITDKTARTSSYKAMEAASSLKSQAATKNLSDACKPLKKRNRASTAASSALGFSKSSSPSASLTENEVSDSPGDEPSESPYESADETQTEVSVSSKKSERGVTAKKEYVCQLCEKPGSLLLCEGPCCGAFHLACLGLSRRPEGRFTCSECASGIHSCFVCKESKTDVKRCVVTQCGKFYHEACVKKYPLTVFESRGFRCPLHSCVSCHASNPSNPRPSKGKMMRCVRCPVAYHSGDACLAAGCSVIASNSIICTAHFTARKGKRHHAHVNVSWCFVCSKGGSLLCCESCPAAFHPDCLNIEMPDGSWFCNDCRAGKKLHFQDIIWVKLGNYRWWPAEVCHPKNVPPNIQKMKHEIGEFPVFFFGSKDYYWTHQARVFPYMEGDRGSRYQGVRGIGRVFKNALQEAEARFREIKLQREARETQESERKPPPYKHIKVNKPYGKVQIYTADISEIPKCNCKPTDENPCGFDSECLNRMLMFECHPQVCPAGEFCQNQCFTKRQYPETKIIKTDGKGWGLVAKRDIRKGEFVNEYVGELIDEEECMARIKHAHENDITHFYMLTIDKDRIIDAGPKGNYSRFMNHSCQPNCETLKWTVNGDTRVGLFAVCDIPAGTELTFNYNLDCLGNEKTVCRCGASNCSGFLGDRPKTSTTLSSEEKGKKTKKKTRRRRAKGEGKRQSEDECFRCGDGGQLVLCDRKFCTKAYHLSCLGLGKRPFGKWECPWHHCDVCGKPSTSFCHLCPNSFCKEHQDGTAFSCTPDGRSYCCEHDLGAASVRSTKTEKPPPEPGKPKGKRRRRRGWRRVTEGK
# UniProt O15118: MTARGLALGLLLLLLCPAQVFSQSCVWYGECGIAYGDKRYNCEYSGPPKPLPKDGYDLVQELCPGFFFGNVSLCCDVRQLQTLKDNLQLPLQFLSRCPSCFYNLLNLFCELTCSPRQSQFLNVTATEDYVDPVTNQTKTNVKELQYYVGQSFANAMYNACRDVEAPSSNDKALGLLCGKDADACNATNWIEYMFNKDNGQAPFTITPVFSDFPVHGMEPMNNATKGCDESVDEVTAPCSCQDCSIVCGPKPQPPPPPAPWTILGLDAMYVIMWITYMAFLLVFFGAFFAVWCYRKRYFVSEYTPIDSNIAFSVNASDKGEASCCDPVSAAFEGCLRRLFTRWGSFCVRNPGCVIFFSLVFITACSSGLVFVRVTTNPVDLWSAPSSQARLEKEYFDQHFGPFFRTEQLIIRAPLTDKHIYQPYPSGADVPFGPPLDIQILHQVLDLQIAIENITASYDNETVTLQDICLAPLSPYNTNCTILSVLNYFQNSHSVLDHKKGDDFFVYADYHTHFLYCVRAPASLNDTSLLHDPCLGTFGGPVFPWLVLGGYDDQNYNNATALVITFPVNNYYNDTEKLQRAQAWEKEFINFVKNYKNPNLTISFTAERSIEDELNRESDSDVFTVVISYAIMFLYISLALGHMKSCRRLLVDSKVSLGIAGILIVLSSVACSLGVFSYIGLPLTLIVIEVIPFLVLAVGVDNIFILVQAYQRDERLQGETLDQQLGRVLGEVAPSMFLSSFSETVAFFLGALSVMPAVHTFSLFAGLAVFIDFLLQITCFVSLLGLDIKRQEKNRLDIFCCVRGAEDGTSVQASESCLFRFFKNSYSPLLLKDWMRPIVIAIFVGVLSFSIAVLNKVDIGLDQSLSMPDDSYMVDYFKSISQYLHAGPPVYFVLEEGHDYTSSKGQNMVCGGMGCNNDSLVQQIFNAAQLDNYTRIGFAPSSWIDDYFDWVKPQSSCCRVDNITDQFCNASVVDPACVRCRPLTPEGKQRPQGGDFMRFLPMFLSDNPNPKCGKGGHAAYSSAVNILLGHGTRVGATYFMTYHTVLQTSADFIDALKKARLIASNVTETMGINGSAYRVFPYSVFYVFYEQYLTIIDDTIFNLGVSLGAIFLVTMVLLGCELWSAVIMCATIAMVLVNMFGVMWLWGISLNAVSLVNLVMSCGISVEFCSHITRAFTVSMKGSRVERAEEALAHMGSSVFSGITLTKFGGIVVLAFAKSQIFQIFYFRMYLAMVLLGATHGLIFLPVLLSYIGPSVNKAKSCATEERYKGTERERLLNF
# UniProt Q9BZ95: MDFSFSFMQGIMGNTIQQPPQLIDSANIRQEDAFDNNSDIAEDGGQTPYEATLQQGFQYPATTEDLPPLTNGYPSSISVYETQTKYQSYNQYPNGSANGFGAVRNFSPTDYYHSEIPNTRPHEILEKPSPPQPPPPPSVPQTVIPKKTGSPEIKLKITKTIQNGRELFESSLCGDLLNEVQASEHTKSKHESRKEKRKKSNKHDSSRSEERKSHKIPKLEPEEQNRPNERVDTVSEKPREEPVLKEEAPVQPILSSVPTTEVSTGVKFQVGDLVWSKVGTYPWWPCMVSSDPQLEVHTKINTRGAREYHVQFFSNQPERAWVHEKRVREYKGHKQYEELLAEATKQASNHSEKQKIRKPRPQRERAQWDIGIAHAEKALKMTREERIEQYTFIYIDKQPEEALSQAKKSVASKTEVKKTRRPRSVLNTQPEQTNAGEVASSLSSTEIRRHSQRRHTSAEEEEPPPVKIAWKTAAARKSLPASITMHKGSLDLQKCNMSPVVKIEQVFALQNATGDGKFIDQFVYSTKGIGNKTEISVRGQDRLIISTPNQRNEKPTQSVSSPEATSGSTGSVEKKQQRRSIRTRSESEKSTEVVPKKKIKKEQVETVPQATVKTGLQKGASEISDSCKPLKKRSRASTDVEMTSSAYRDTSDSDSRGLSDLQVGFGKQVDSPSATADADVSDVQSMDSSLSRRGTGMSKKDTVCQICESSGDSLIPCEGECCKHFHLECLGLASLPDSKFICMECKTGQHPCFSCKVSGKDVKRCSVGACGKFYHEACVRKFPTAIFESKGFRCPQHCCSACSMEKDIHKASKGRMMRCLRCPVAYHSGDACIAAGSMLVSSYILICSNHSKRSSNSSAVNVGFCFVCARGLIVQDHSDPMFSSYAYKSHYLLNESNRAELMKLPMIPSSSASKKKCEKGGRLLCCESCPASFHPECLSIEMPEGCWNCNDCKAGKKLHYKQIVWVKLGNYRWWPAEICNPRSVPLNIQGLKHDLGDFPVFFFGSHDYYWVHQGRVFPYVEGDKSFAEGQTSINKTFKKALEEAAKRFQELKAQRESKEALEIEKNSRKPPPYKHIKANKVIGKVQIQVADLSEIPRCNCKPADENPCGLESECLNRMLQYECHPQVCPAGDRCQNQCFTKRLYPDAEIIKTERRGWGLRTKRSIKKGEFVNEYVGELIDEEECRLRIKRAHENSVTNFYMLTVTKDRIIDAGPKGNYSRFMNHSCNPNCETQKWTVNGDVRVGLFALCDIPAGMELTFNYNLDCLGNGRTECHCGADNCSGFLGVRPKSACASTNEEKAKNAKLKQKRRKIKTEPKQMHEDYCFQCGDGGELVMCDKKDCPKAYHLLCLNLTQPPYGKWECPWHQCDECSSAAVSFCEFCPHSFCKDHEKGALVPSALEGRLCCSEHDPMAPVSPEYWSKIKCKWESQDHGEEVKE
# UniProt Q8NDH3: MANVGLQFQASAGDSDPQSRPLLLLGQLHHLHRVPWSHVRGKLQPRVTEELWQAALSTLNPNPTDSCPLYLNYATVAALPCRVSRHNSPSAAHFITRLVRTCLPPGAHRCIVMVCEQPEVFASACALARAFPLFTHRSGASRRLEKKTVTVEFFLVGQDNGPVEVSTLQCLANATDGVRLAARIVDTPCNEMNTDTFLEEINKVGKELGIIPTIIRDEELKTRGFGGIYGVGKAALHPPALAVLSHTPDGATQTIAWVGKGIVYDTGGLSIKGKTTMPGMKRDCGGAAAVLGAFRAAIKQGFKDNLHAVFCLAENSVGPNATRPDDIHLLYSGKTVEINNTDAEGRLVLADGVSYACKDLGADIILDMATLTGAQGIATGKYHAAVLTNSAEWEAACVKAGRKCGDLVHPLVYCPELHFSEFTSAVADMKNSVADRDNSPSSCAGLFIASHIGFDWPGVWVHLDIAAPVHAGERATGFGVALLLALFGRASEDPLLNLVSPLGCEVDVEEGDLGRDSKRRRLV
# UniProt Q9BYT8, whole entry, looked up: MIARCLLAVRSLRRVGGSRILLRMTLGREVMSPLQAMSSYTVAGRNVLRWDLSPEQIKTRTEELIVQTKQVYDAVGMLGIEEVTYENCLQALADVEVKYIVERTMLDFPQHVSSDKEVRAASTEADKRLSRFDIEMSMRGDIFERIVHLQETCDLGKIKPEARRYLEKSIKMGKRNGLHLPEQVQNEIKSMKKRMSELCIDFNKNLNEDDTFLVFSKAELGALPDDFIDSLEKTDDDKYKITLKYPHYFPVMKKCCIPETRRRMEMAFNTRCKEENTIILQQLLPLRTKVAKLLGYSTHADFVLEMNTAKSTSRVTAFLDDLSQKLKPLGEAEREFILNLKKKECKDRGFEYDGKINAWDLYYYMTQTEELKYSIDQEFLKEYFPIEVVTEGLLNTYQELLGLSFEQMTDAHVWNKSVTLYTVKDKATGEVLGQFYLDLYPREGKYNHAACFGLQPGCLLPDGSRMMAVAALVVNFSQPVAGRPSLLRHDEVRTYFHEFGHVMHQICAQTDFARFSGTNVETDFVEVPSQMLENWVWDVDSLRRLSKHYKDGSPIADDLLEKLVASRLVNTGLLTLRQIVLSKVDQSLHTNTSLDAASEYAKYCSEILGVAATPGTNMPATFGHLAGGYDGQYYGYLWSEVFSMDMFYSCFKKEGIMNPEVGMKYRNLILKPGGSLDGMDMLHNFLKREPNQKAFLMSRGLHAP
# UniProt Q96MF7: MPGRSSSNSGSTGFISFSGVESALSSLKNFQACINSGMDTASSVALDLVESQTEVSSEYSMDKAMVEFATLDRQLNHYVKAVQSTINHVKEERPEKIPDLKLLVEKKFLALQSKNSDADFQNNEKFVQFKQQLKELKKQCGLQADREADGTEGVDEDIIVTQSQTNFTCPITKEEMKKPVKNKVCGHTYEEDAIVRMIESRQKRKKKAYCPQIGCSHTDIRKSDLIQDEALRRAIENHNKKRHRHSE
# UniProt Q86WQ0: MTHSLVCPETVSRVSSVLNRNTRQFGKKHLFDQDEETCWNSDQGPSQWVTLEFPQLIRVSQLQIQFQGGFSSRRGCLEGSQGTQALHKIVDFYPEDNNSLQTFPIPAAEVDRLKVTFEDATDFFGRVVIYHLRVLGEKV
# UniProt Q5SY16: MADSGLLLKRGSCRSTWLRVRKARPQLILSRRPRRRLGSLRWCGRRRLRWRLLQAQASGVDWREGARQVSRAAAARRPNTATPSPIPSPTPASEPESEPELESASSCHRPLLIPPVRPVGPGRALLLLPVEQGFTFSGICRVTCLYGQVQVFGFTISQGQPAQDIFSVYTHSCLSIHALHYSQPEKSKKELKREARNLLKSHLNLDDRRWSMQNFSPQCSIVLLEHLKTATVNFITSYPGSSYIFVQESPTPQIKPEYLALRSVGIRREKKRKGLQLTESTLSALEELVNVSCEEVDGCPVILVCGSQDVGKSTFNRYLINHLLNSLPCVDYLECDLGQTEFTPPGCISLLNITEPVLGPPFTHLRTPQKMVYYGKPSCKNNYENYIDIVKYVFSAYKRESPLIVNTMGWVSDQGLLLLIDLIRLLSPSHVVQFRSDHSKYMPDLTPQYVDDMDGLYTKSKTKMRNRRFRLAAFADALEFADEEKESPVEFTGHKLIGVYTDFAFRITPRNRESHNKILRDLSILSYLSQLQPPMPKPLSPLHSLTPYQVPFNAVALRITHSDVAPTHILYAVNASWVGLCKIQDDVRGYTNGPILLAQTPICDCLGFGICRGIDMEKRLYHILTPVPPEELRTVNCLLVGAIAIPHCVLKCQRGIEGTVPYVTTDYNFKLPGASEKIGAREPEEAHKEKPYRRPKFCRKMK
# UniProt Q8TCD5: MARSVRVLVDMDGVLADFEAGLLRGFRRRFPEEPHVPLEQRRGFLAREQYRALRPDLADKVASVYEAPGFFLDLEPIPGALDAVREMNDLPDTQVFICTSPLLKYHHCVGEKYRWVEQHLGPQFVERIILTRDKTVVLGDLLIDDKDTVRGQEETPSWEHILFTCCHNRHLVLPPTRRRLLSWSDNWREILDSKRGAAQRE
# The other results are listed elsewhere or left out.
# Compound: Cc1cc(ccc1-c1ccccc1)C(=O)N1CCCN(CC1)C(=O)CCl [compound 10]
# Assay: probe-labelled cysteine peptide fold change vs DMSO (competition) (log2 fold change); higher = less target engagement (more negative = stronger competition)
# Details: THP-1, incubation time: 4 h
# 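Also: competitive profiling in live THP-1 cells: cysteine peptides tagged with an iodoacetamide desthiobiotin (IA-DTB) probe, intensity after compound treatment relative to DMSO-treated cells.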
Target,probe-labelled cysteine peptide fold change (10 µM),probe-labelled cysteine peptide fold change (50 µM)
NPC2_P61916_93_AVVHGILMGVPVPFPIPEPDGCK (UniProt P61916),-0.0189,0.207
NSD2_O96028_1198_CGASNCSGFLGDRPK (UniProt O96028),-0.0597,-0.546
NPC1_O15118_1261_SCATEER (UniProt O15118),-0.238,-0.609
NOL6_Q9H6R4_777_LAELLTQQHGLQCR (UniProt Q9H6R4),0.0225,0.0277
NSUN5P1_Q3KNT7_138_GLSTFPGAEHCLR (UniProt Q3KNT7),-0.0323,0.00486
NOP16_Q9Y3C1_36_IECSHIR (UniProt Q9Y3C1),-0.17,-0.594
NMT1_P30419_483_CPSMGAEK (UniProt P30419),-0.111,-0.219
NOC4L_Q9BVI4_509_KGPEPVPLEFIPAQGLLGRPGELCAQHFTLS (UniProt Q9BVI4),-0.106,0.122
NRDC_O43847_18_VTVAAVCATRRKLCEAGR (UniProt O43847),-0.246,-0.213
NSUN2_Q08J23_93_EILHCLK (UniProt Q08J23),0.0908,-0.361
NOL11_Q9H8H0_286_ECLSVWNIK (UniProt Q9H8H0),-0.0589,0.226
NSD2_O96028_38_TPSCEVNR (UniProt O96028),-0.0849,-0.0736
NSL1_Q96IY1_136_ILECVIK (UniProt Q96IY1),0.0491,0.126
NOP58_Q9Y2X3_205_IISDNLTYCK (UniProt Q9Y2X3),-0.102,-0.187
NSD3_Q9BZ95_495_CNMSPVVK (UniProt Q9BZ95),-0.109,-0.465
NPEPL1_Q8NDH3_404+414_CGDLVHPLVYCPELHFSEFTSAVADMK (UniProt Q8NDH3),-0.13,0.076
NPAT_Q14207_1172_ENELCSDVER (UniProt Q14207),-0.122,-0.109
NLRX1_Q86UT6_767_LGLQLNSLGPEACK (UniProt Q86UT6),0.00501,0.101
NPEPL1_Q8NDH3_357_LVLADGVSYACK (UniProt Q8NDH3),-0.0677,-0.142
NSF_P46459_11+21_CPTDELSLTNCAVVNEK (UniProt P46459),-0.491,-0.0322
NOP9_Q86U38_242_TPAQECKPADFEVPETFLNR (UniProt Q86U38),-0.1,0.125

Target,probe-labelled cysteine peptide fold change (10 µM),probe-labelled cysteine peptide fold change (50 µM)
NRDC_O43847_1027_ECEDTHLGEEVDR (UniProt O43847),0.000607,0.373
NLN_Q9BYT8_451_YNHAACFGLQPGCLLPDGSR (UniProt Q9BYT8),0.12,0.0146
NOTCH1_P46531_1425_FNGLLCHILDYSFGGGAGR (UniProt P46531),-0.0522,0.0723
NRDE2_Q9H7Z3_608_QTEEDCEDPER (UniProt Q9H7Z3),-0.087,0.221
NOP56_O00567_112_IGAAIQEELGYNCQTGGVIAEILR (UniProt O00567),-0.141,0.158
NSD3_Q9BZ95_729_HFHLECLGLASLPDSK (UniProt Q9BZ95),-0.00268,-0.32
NSUN2_Q08J23_271_ILCDVPCSGDGTMR (UniProt Q08J23),-0.105,-0.277
NPLOC4_Q8TAT6_399_DECLLPCK (UniProt Q8TAT6),0.0365,0.413
NT5C2_P49902_121_VDAYGNLLVCAHGFNFIR (UniProt P49902),-0.189,0.116
NSD3_Q9BZ95_1292_SACASTNEEK (UniProt Q9BZ95),-0.153,-0.652
NSUN2_Q08J23_502_DGVCGPPPSK (UniProt Q08J23),-0.219,-0.0804
NSMCE2_Q96MF7_210+215_AYCPQIGCSHTDIR (UniProt Q96MF7),0.617,0.0116
NMT2_O60551_485_CPGTDSEK (UniProt O60551),-0.0655,-0.0787
NOB1_Q9ULX3_285+288_VFCSHCGNK (UniProt Q9ULX3),0.265,-0.447
NR2C2AP_Q86WQ0_76_RGCLEGSQGTQALHK (UniProt Q86WQ0),0.0312,0.174
NSD3_Q9BZ95_173_ELFESSLCGDLLNEVQASEHTK (UniProt Q9BZ95),-0.166,0.093
NOM1_Q5C9Z4_65_LAVEEFVHATSEGEAPGGCEGR (UniProt Q5C9Z4),0.202,-0.0786
NSUN2_Q08J23_673+678_YEPDSANPDALQCPIVLCGWR (UniProt Q08J23),0.329,-0.0256
NRDC_O43847_966_QTLGYHVYPTCR (UniProt O43847),0.0654,0.0354
NSMCE1_Q8WV22_207_ICNICHSLLIQGQSCETCGIR (UniProt Q8WV22),-0.0377,0.0458
NOL9_Q5SY16_581_ITHSDVAPTHILYAVNASWVGLCK (UniProt Q5SY16),0.0465,0.282

Target,probe-labelled cysteine peptide fold change (10 µM),probe-labelled cysteine peptide fold change (50 µM)
NOB1_Q9ULX3_147_GHSACEPENLEFSSFMFWR (UniProt Q9ULX3),-0.0022,-0.15
NPLOC4_Q8TAT6_341_DTYFLSSEECITAGDFQNK (UniProt Q8TAT6),-0.0801,0.217
NSD1_Q96L73_2508_GCVSDPLQTSGK (UniProt Q96L73),-0.278,-0.221
NOL9_Q5SY16_379_MVYYGKPSCK (UniProt Q5SY16),-0.00774,-0.487
NTMT1_Q9BV86_195_IICSAGLSLLAEERQENLPDEIYHVYSFALR (UniProt Q9BV86),0.128,-0.928
NT5C3A_Q9H0P0_120_LVTDECR (UniProt Q9H0P0),0.134,0.287
NOC4L_Q9BVI4_100_HRYHSCCNR (UniProt Q9BVI4),-0.259,-0.743
NT5C3B_Q969T7_73_IISEECR (UniProt Q969T7),-0.00671,0.268
NOL10_Q9BSC4_79_CYDTYQLSLK (UniProt Q9BSC4),0.154,0.368
NOL11_Q9H8H0_368_HSQDPGTHVVSHFVNWETPQGCGLGFQNSEQSR (UniProt Q9H8H0),0.131,-0.228
NOCT_Q9UK39_136_TDCPSTHPPIR (UniProt Q9UK39),-0.188,-0.285
NLRC5_Q86WI3_917_KLDLSNNGLSVAGVHCVLR (UniProt Q86WI3),-0.142,-0.426
NOS1AP_O75052_31_IPLHNEDAFQHGICFEAK (UniProt O75052),0.071,-0.238
NRDC_O43847_906_LNFKPLEQEMPVQFQVVELPSGHHLCK (UniProt O43847),0.221,0.0671
NPEPL1_Q8NDH3_504_ASEDPLLNLVSPLGCEVDVEEGDLGR (UniProt Q8NDH3),-0.334,0.172
NMD3_Q96D46_321_QLEEFIVMECSIVQDIKR (UniProt Q96D46),0.131,-0.0466
NSMCE4A_Q9NXX6_226_THTFHFLLGSIYGECPVPKPR (UniProt Q9NXX6),-0.197,-0.626
NMNAT1_Q9HAN9_111_LEASDCDHQQNSPTLERPGRK (UniProt Q9HAN9),-0.146,-0.461
NRBP2_Q9NSY0_34_EREDESEDESDILEESPCGR (UniProt Q9NSY0),-0.476,-0.713
NPEPL1_Q8NDH3_397_YHAAVLTNSAEWEAACVK (UniProt Q8NDH3),-0.104,0.0602
NR2C2AP_Q86WQ0_76_GCLEGSQGTQALHK (UniProt Q86WQ0),-0.16,-0.0145

Target,probe-labelled cysteine peptide fold change (10 µM),probe-labelled cysteine peptide fold change (50 µM)
NSD2_O96028_44_ECSVFLSK (UniProt O96028),-0.306,-0.264
NOL11_Q9H8H0_578_ESTSCPVVQK (UniProt Q9H8H0),-0.0261,0.11
NOTCH2_Q04721_1211_CSCPPGTR (UniProt Q04721),0.0168,8.4e-05
NSMCE2_Q96MF7_185_VCGHTYEEDAIVR (UniProt Q96MF7),0.341,-0.0323
NSD2_O96028_1245_CGDGGQLVLCDR (UniProt O96028),-0.0443,-0.318
NPEPL1_Q8NDH3_189_IVDTPCNEMNTDTFLEEINK (UniProt Q8NDH3),-0.144,0.265
NOP10_Q9NPE3_28_KFDPMGQQTCSAHPAR (UniProt Q9NPE3),-0.126,-0.11
NR2C1_P13056_200_SSNCAASTEK (UniProt P13056),-0.24,-0.445
NLN_Q9BYT8_507_TYFHEFGHVMHQICAQTDFAR (UniProt Q9BYT8),-0.0376,0.0395
NSMAF_Q92636_803+809_EGTVNIWDLTTATLMHQIPCHSGIVCDTAFSPDSR (UniProt Q92636),0.0915,-0.0821
NOL9_Q5SY16_637_TVNCLLVGAIAIPHCVLK (UniProt Q5SY16),-0.0765,-0.381
NSD1_Q96L73_1312_CEEESLLAR (UniProt Q96L73),-0.133,-0.258
NOTCH2_Q04721_870_CTIDIDECISK (UniProt Q04721),-0.147,0.0219
NOTCH1_P46531_1225_GTQGVHCEINVDDCNPPVDPVSR (UniProt P46531),-0.184,-0.294
NSUN2_Q08J23_184_ILDMCAAPGSK (UniProt Q08J23),-0.353,-0.48
NT5C3A_Q9H0P0_73_VEEIICGLIK (UniProt Q9H0P0),-0.275,0.00976
NOP56_O00567_52_LVAFCPFASSQVALENANAVSEGVVHEDLR (UniProt O00567),0.094,0.61
NT5C_Q8TCD5_98_EMNDLPDTQVFICTSPLLK (UniProt Q8TCD5),-0.0432,-0.082
NNT_Q13423_936_EANSIIITPGYGLCAAK (UniProt Q13423),0.0449,0.033
NSDHL_Q15738_340_VALAGTFHYYSCER (UniProt Q15738),-0.142,0.183
NPC1_O15118_177_ALGLLCGK (UniProt O15118),-0.118,-0.0591
